Some of the results follow. These are further read-outs of the screen, such as a control signal, another cell line or another target. No call is given for them. Most of these compounds were active or inconclusive in the main read-out, so they are no random draw. Potencies come from curve fits of mixed quality, noted in brackets.
Assay: qHTS Assay to Find Inhibitors of Chronic Active B-Cell Receptor Signaling
Conditions: ABC-DLBCL IkBa-CBG/CBR reporter, luminescence ratio (green luciferase fused to IkBa over red control in TMD8 lymphoma cells), 4 h
Outline: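 Cell line TMD8 (human ABC DLBCL), stably expressing tet-inducible CBG68-IkBa fusion and CBR; IMDM/0.5% FBS; cpd up to 46 uM; dox induction, 4 h, 37C/5% CO2; dual luminescence; green/red ratio; MG132 control.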

[1] = measured here: CBR red luminescence, cell number

Compound | AC50 [1] | AC50 (measured here: IkBa-CBG green luminescence)
COc1ccc(OC)c(Nc2nc(-c3cccs3)cs2)c1 | 32.6 µM [falling, single point] | –
O=C(NCCN1CCN(C(=O)c2cccc(OC(F)F)c2)CC1)c1cccc(OC(F)F)c1 | 2.91 µM [rising, partial curve] | –
O=C(Nc1ccc2c(c1)nc1n2CCOC1)c1ccco1 | 11.2 µM [falling, partial curve, poor fit] | –
N#CC/C(N)=N/NC(=O)CCCNc1ncc(C(F)(F)F)cc1Cl | 35.5 µM [falling, single point] | –
CN(C)CCNc1ncnc2c1cnn2-c1cccc(Cl)c1 | 20 µM [falling, single point] | –
COc1ccc(CCNC(=O)CSc2nnnn2-c2ccc(OC)c(OC)c2)cc1OC | 8.91 µM [rising, single point] | –
CCOC(=O)c1c(C)n(C)c2ccc(O)c(CN3CCC(C)CC3)c12 | 0.731 µM [falling, partial curve, poor fit] | –
Oc1[nH]c2ccccc2c1N=Nc1c(F)c(F)c(C(F)(F)F)c(F)c1F | 0.501 µM [rising, full curve, poor fit] | –
CC(=O)Nc1cccc(C(=O)OCC(=O)NC(=O)c2ccccc2)c1 | 29.1 µM [rising, partial curve, poor fit] | –
O=C1c2ccccc2C(=O)N1OCCOCCOCCON1C(=O)c2ccccc2C1=O | 29.1 µM [rising, single point] | –
CCN(C(=O)CSc1ncnc2sc(C)c(C)c12)C1CCS(=O)(=O)C1 (configuration not stated) | 35.5 µM [falling, single point] | –
Cc1c(C(=O)Nc2ccc(C(=O)O)cc2)nnn1-c1ccccc1 | 2.82 µM [falling, full curve] | –
Cc1ccc(N=Nc2c(O)[nH]c(=O)[nH]c2=O)cc1S(=O)(=O)Nc1ccc(Br)cc1 | 16.4 µM [falling, partial curve, poor fit] | –
c1ccc(CC2CCN(c3nc4ccccc4n4cnnc34)CC2)cc1 | 3.26 µM [rising, full curve] | –
O=C(CC1Nc2ccccc2NC1=O)Nc1ccc2c(c1)OCO2 (configuration not stated) | 17.8 µM [falling, partial curve, poor fit] | –
O=C(Nc1cc(Cl)ccc1Oc1ccccc1)c1ccccc1F | 18.4 µM [rising, partial curve, poor fit] | –
Cc1cccc2cc(C#N)c(NCCNS(=O)(=O)c3ccc4c(c3)OCCO4)nc12 | 22.4 µM [falling, single point] | –
O=C(O)c1cccc(N/N=C/c2ccc(F)c(F)c2)c1 | 35.5 µM [falling, partial curve, poor fit] | –
N#Cc1ccccc1OCC(=O)NCC1(N2CCCCC2)CCCCC1 | 12.6 µM [falling, partial curve] | –
c1ccc(-c2nnc(NC3=NCCC3)o2)cc1 | 8.91 µM [falling, partial curve] | –
O=c1[nH]cnc2cc(-c3ccccc3)sc12 | 17.8 µM [falling, single point] | –

Record cards (already shown). Values in the order: AC50 [1]	AC50 (measured here: IkBa-CBG green luminescence)
`N#Cc1ccccc1OCC(=O)NCC1(N2CCCCC2)CCCCC1` in the list: 12.6 µM [falling, partial curve]	–
`O=C(O)c1cccc(N/N=C/c2ccc(F)c(F)c2)c1` in the list: 35.5 µM [falling, partial curve, poor fit]	–
`CC(=O)Nc1cccc(C(=O)OCC(=O)NC(=O)c2ccccc2)c1` in the list: 29.1 µM [rising, partial curve, poor fit]	–

The list continues.

Compound | AC50 [1] | AC50 (measured here: IkBa-CBG green luminescence)
CCC(C)Sc1nc2c(c(=O)[nH]c(=O)n2C)n1C (configuration not stated) | 35.5 µM [rising, partial curve, poor fit] | –
CN(C)/C=N/c1nc(-c2ccc3c(c2)OCO3)cs1 | 6.31 µM [rising, single point] | –
N#Cc1ccc(/C=N/NC(=O)c2cc(-c3cccs3)nc3ccccc23)cc1 | 18.4 µM [rising, partial curve] | –
COc1ccc(NC(=O)CN2C(=O)COc3ccc(S(=O)(=O)N4CCCCCC4)cc32)cc1 | 3.98 µM [falling, partial curve, poor fit] | –
Cc1sc(NC(=O)/C=C/c2ccco2)c(C(=O)O)c1C | 1.58 µM [falling, full curve] | –
O=C1c2cccc3cccc(c23)C(=O)N1CC1CCN(S(=O)(=O)c2ccc(F)cc2)CC1 | 3.66 µM [rising, partial curve, poor fit] | –
C=CCn1c(N)c(C(=O)NC2CCCCC2)sc1=S | 13 µM [falling, partial curve, poor fit] | –
Cc1ccc(NS(=O)(=O)c2c(C)[nH]c(=O)[nH]c2=O)c(Br)c1 | 7.94 µM [rising, partial curve, poor fit] | –
Cc1ccc2nc(/C(C#N)=C/c3ccc(-c4cccc([N+](=O)[O-])c4)o3)[nH]c2c1 | 29.1 µM [rising, partial curve, poor fit] | –
CC(C)(CC(=O)N1CCN(c2ccc(Cl)cc2)CC1)CC1=NS(=O)(=O)c2ccccc2N1 | 35.5 µM [falling, single point] | –
CCOC(=O)CN1CC23C=CC(O2)C(C(=O)NCc2cccs2)C3C1=O (configuration not stated) | 32.6 µM [rising, partial curve, poor fit] | –
CCOc1ccccc1N(CC(=O)NCCc1ccc(OC)c(OC)c1)S(=O)(=O)c1ccccc1 | 31.6 µM [rising, single point] | 35.5 µM [falling, single point]
COc1ccc(NC(=O)c2cc(-c3ccc(C)cc3)on2)cc1 | 1.41 µM [falling, full curve] | –
O=C(c1ccco1)N1CCN(CC(O)Cn2c3ccccc3c3ccccc32)CC1 (configuration not stated) | 6.51 µM [falling, single point] | –
Cc1cc(NC(=O)CCN2CCN(Cc3ccccc3)CC2)ccc1Br | 3.55 µM [rising, single point] | –
COc1ccc(CN2CCN(c3cccc(C)c3C)CC2)cc1OC | 14.6 µM [rising, single point] | –
CCCCCc1c(C)c(C#N)c2nc3ccccc3n2c1-n1ccnc1C | 5.01 µM [rising, single point] | –
Cc1ccc(SCC(=O)Nc2ccc(C(=O)Nc3ccc(O)cc3)cc2)cc1 | 35.5 µM [rising, partial curve, poor fit] | –
CC(=O)N(c1ccccc1)C1CC(C)N(C(=O)c2ccccc2)c2ccccc21 (configuration not stated) | 12.6 µM [falling, partial curve, poor fit] | –
COC(=O)c1cc(CNC(=O)c2cccc(Cl)c2)ccc1OC | 1.46 µM [rising, full curve, poor fit] | –

— PubChem BioAssay AID493014 (National Center for Advancing Translational Sciences (NCATS), 2011)
